# PubChem BioAssay AID504793 – Drosophila RNAi Screening Center, 2011
# Aim: 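Whole-genome screen for parts of the DNA damage checkpoint at G2/M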 (primary screen)
# System: Drosophila S2R+ cells
# Reagent: long dsRNA against Drosophila genes, about 0.25 µg dsRNA per well
# Time to read-out: 4 days of dsRNA, then 4 hours of drug before read-out
# Treatment: doxorubicin 0.5 µM for 4 hours to cause double-strand breaks, in cells also given a low, harmless dose of dsRNA against nbs to sensitise the assay
# Detection: 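Per-well count of mitotic cells stained for phospho-histone H3 after doxorubicin exposure, used as mitotic index; counts are raw and not normalised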
# Reading the numbers: mitotic cells: higher = more cells in mitosis, weaker G2 arrest
# Rule for the call: 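Genes are called active only when high mitotic counts were reproduced with independent dsRNAs and mitosis was checked for delay without damage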
# Meaning of the calls: active = confirmed in follow-up tests; inactive = not confirmed
# The deposit covers about 23,000 reagents; this is an unselected part of those with a known target gene and a result. Of all reagents, 62 (0.27%) got an active call. 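Calls come from follow-up tests whose scores are not deposited, so confirmed genes may have low counts here; counts are not normalised per plate.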 Raw values vary from plate to plate and are shown uncorrected.
gene,PubChem SID,"mitotic cells, replicate 1","mitotic cells, replicate 2",outcome
CG13385,SID104182051,5,,inactive
CG8728,SID104187043,8,,inactive
RhoGAP15B,SID104199716,5,,inactive
RhoGAP15B,SID104199717,7,,inactive
CG10252,SID104194013,5,,inactive
NiPp1,SID104187099,4,,inactive
Gapdh1,SID104187225,13,,inactive
Gapdh1,SID104204290,9,,inactive
ru,SID104188050,3,,inactive
ru,SID104207073,7,,inactive
CG13003,SID104199314,13,,inactive
ktub,SID104184343,9,,inactive
DCTN3-p24,SID104184384,5,,inactive
DCTN3-p24,SID104207700,16,,inactive
Gpxl,SID104186330,12,,inactive
Tmem43,SID104190756,5,,inactive
Tmem43,SID104204721,7,,inactive
Eglp2,SID104184086,,,inactive
CG7872,SID104199854,7,,inactive
mud,SID104198811,22,7,inactive
Myc,SID104202711,4,,inactive
Vang,SID104187362,2,,inactive
sowi,SID104192350,5,,inactive
sowi,SID104203036,8,,inactive
CG15020,SID104188266,5,,inactive
dac,SID104183310,5,,inactive
E(spl)m7-HLH,SID104196488,6,,inactive
E(spl)m7-HLH,SID104207995,9,,inactive
dpr5,SID104195558,8,,inactive
dpr5,SID104203785,9,,inactive
IntS12,SID104195610,15,,inactive
Jhbp11,SID104194975,10,,inactive
Jhbp11,SID104208223,7,,inactive
mora,SID104196386,13,,inactive
RpL13,SID104183208,22,,inactive
Snx27,SID104197578,11,,inactive
Snx27,SID104198074,12,,inactive
Snx27,SID104198076,23,,inactive
CG13375,SID104198413,9,,inactive
loh,SID104180914,10,,inactive
loh,SID104182735,6,,inactive
Gclm,SID104195469,9,,inactive
Gclm,SID104204902,6,,inactive
wmd,SID104184228,4,,inactive
wmd,SID104207798,4,,inactive
CG7568,SID104196051,13,,inactive
CG7568,SID104206922,7,,inactive
CG34112,SID104192027,3,,inactive
CG12290,SID104194289,1,,inactive
CG12290,SID104206872,7,,inactive
Taf10,SID104208635,2,,inactive
NimC4,SID104181737,8,,inactive
tst,SID104194004,5,,inactive
Nup154,SID104183176,5,,inactive
Nup154,SID104204940,6,,inactive
CG3342,SID104198096,2,,inactive
CG3342,SID104208592,6,,inactive
Ptr,SID104184644,5,,inactive
Ptr,SID104201237,1,,inactive
CtBP,SID104196409,7,,inactive
CtBP,SID104202857,7,,inactive
Pdh,SID104191041,8,,inactive
Pdh,SID104205539,6,,inactive
mRpL12,SID104190259,5,,inactive
mRpL12,SID104207069,1,,inactive
Xpac,SID104198522,13,,inactive
Xpac,SID104204507,4,,inactive
CG42789,SID104193585,7,,inactive
CG12984,SID104191485,6,,inactive
Pfdn4,SID104189553,9,,inactive
Pfdn4,SID104205280,1,,inactive
Polr2A,SID104200072,20,,active
Polr2A,SID104205701,14,,inactive
CG7320,SID104190602,5,,inactive
CG7320,SID104204594,6,,inactive
CG9257,SID104182965,3,,inactive
CG4313,SID104198306,2,,inactive
CG4313,SID104203307,3,,inactive
DCP2,SID104190389,4,,inactive
Takl2,SID104195442,9,,inactive
CG14354,SID104194609,6,,inactive
CG33111,SID104194000,4,,inactive
CG33111,SID104194236,5,,inactive
CG30192,SID104183769,5,,inactive
CG1983,SID104195202,15,,inactive
CG15025,SID104194823,7,,inactive
Strica,SID104184712,7,,inactive
fat-spondin,SID104187409,2,,inactive
Mhcl,SID104192922,5,,inactive
Mhcl,SID104194008,1,,inactive
Mhcl,SID104196545,10,,inactive
exd,SID104200122,19,,inactive
exd,SID104208643,1,,inactive
CG9030,SID104199931,4,,inactive
dmt,SID104196724,45,,inactive
CG31872,SID104182360,3,,inactive
CG31872,SID104182364,6,,inactive
CG32344,SID104188370,5,,inactive
Cyp6a15Psi,SID104187169,4,,inactive
Cyp6a15Psi,SID104206860,3,,inactive
CG13198,SID104186115,5,,inactive
CG11596,SID104198332,6,,inactive
CG11596,SID104207187,7,,inactive
san,SID104187487,14,,inactive
CG15382,SID104180189,5,,inactive
CG15382,SID104203410,4,,inactive
trh,SID104188147,5,,inactive
trh,SID104188531,11,,inactive
trh,SID104208637,1,,inactive
mRpL21,SID104190892,8,,inactive
CCKLR-17D3,SID104199807,36,,inactive
CCKLR-17D3,SID104199809,3,,inactive
CCKLR-17D3,SID104202859,10,,inactive
CG34126,SID104182518,3,,inactive
CG34126,SID104201652,13,,inactive
Adgf-A2,SID104189299,22,,inactive
Jabba,SID104186313,5,,inactive
Mob4,SID104184785,2,,inactive
Mob4,SID104208111,6,,inactive
CG12682,SID104197665,13,,inactive
Ddx1,SID104191654,6,,inactive
CG14811,SID104197754,16,,inactive
CG33230,SID104188394,2,,inactive
CG32161,SID104201683,,,inactive
BaraB,SID104186212,6,,inactive
CG8478,SID104196219,3,,inactive
Dpit47,SID104184777,5,,inactive
Dpit47,SID104207432,4,,inactive
ValRS-m,SID104190327,5,,inactive
CG9386,SID104196277,3,,inactive
CG2765,SID104184107,2,,inactive
CG31689,SID104203358,7,,inactive
retm,SID104183044,6,,inactive
ort,SID104196032,8,,inactive
CG6865,SID104190524,5,,inactive
Socs44A,SID104186620,3,,inactive
brv1,SID104190868,,,inactive
Fum3,SID104190384,10,,inactive
Fum3,SID104203978,5,,inactive
Tim17a2,SID104192044,1,,inactive
Tim17a2,SID104202911,2,,inactive

Reformatted: results already given
{"gene":"CCKLR-17D3","PubChem SID":"SID104202859","mitotic cells, replicate 1":10,"outcome":"inactive"}
{"gene":"CG34126","PubChem SID":"SID104182518","mitotic cells, replicate 1":3,"outcome":"inactive"}
{"gene":"CG34126","PubChem SID":"SID104201652","mitotic cells, replicate 1":13,"outcome":"inactive"}
{"gene":"Adgf-A2","PubChem SID":"SID104189299","mitotic cells, replicate 1":22,"outcome":"inactive"}
{"gene":"Jabba","PubChem SID":"SID104186313","mitotic cells, replicate 1":5,"outcome":"inactive"}
{"gene":"Mob4","PubChem SID":"SID104184785","mitotic cells, replicate 1":2,"outcome":"inactive"}
{"gene":"Mob4","PubChem SID":"SID104208111","mitotic cells, replicate 1":6,"outcome":"inactive"}
{"gene":"CG12682","PubChem SID":"SID104197665","mitotic cells, replicate 1":13,"outcome":"inactive"}
{"gene":"Ddx1","PubChem SID":"SID104191654","mitotic cells, replicate 1":6,"outcome":"inactive"}
